{
  "source": "patent US20070161644A1",
  "about": "“Erastin analogs and uses thereof” (priority 2005, published 2007)",
  "key": {"engineered cell lines": {"tested_on": "engineered cell lines", "assay": "Selectivity across the panel of engineered cell lines (calcein AM)", "format": "cell-based, human"}, "[1]": {"tested_on": "BJ-TERT/LT/ST/RAS^V12 cells", "assay": "Alamar Blue viability assay", "format": "cell-based, human", "settings": "ST- and RAS^V12-dependent"}, "[2]": {"tested_on": "BJ-TERT/LT/ST/RAS^V12 cells", "assay": "Nuclear morphology assay", "format": "cell-based, human"}, "[3]": {"tested_on": "cleaved, active caspase 3 in BJ-TERT/LT/ST/RAS^V12 cells", "assay": "Western blot for active caspase-3", "format": "cell-based, human", "settings": "western blot of lysates", "protocol": "BJ-TERT/LT/ST/RAS^V12 cells were seeded prior to the experiment at 5×10^5 cells in 60 mm dishes. The cells were treated with 5 μg/ml erastin (9 μM) for 2, 4, 6, 8 or 10 hours. One dish was maintained for camptothecin treatment (0.4 μg/ml for 24 h) as a positive control. Cells were lysed after each time point in lysis buffer (50 mM HEPES KOH pH 7.4, […], 2 mM EDTA, 0.5% Triton X-100, 1.5 mM Na3VO4, 50 mM NaF, 10 mM sodium pyrophosphate, 10 mM sodium beta-glycerophosphate and protease inhibitor tablet (Roche)). Protein content was quantified using a Biorad protein assay reagent. Equal amounts of protein were resolved on 16% SDS-polyacrylamide gel. The electrophoresed proteins were transblotted onto a PVDF membrane, blocked with 5% milk and incubated with anti-active caspase-3 polyclonal antibody (BD Pharmingen) at 1:1500 dilution overnight at 4° C. The membrane was then incubated in anti-rabbit-HRP (Santa Cruz Biotechnology) at 1:3000 dilution for 1 hour and developed with an enhanced chemiluminescence mixture (NEN life science, Renaissance). To test for equivalent loading in each lane, blots were stripped, blocked, and probed with an anti-eIF-4E antibody (BD Transduction laboratories) at 1:1000 dilution."}, "[4]": {"tested_on": "VDAC isoforms, Prohibitin and Ribophorin", "assay": "Pull-down with immobilized erastin derivatives", "format": "binding, human", "settings": "pull-down from lysates, mitochondrial extract or MonoQ fractions", "protocol": "Pull-down assays using immobilized erastin and cell lysates were used in an initial attempt to identify erastin binding partners inside a cell. Initial pull-down experiments were performed with HEK293, BJEH and BJELR whole cell lysates. In those experiments, a methyl-amino derivative of erastin (ERA-A6) was immobilized to Affigel 10 and incubated with lysate under standard pull-down conditions. The beads were washed and either eluted with 100 μM erastin or 0.8% N-lauroylsarcosine (sarkosyl). The eluates were subjected to mass spectrometric analysis.\nSince Prohibitin and the VDAC isoforms are all mitochondrial proteins, Applicants enriched potential erastin targets by isolating mitochondria from cell lysates. The isolated mitochondrial extracts were then used in erastin pull-down experiments. In those erastin pull-down experiments with the mitochondrial extracts, Prohibitin, VDAC and Ribophorin were also identified by Western blot. […] The pull-downs were performed with 0.25 mg total protein of the mitochondrial extract. The beads were incubated with the extracts for 1.5 h at 4° C. and then washed several times. Proteins bound to the immobilized Erastin derivatives were eluted with 50 μL of 0.8% N-lauroylsarcosine solution. […]\nRibophorin and Prohibitin are rather acidic proteins with a calculated PI of 5.57 (Prohibitin) and 5.96 (Ribophorin I). […]"}, "[5]": {"tested_on": "BJ-TERT/LT/ST/RAS^V12 cells", "assay": "Characterization of erastin-treated cells (Trypan Blue, JC-1)", "format": "cell-based, human", "settings": "erastin for 18 hours"}},
  "note": "At least one compound was matched to its structure with a doubt left.",
  "data": [
    {"compound": "CCOc1ccccc1-n1c(C(C)N2CCN(C(=O)COc3ccc(Cl)cc3)CC2)nc2ccccc2c1=O", "note": "(stereo not drawn) [Erastin, 2-[1′-(N-(4″-chlorophenoxyacetyl)-N-piperazino]-ethyl]-3-(2′″-ethoxyphenyl)-quinazolin-4-one]", "values": [
      {"measurement": "concentration that failed to kill cells lacking RAS^V12 and ST, relative to that with effect on cells expressing both", "setting": "engineered cell lines", "result": "eight-fold higher"},
      {"measurement": "time to irreversible, non-apoptotic cell death", "setting": "[1]", "result": 24, "unit": "h"},
      {"measurement": "type of cell death", "setting": "[2]", "result": "non-apoptotic"},
      {"measurement": "activated caspase 3", "setting": "[3]", "result": "not erastin-treated"},
      {"measurement": "binding of cellular proteins to the immobilized compound", "setting": "[4]", "result": "bind to erastin"},
      {"measurement": "exclusion of Trypan Blue", "setting": "[5]", "result": "failed to exclude the vital dye Trypan Blue"}
    ]}
  ]
}
